The record followed here is PubChem BioAssay AID445 (National Center for Advancing Translational Sciences (NCATS), 2006).

Some of the results follow. The main result of the screen is listed elsewhere. These columns were measured beside it and carry no call. Most of these compounds were active or inconclusive in the main read-out, so they are no random draw. Words in brackets tell the shape of the fitted curve; partial curves, single points and poor fits give uncertain potencies.

This test can be described thus: IkB Signaling. The following applies: ABC-DLBCL IkBa-CBG/CBR dual luciferase ratio (green luciferase fused to IkBa over red control in OCI-Ly3 lymphoma cells), 4 h. In outline:
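Luminescence ratio of IκBα-fused green versus native red beetle luciferase in OCI-Ly3 cells, 4 h post-doxycycline with compound; red signal alone, scaled from basal (0%) to zero light (-100%), flagged nonspecific or cytotoxic effects.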

The mark [1] stands for this setting: measured here: control luc red channel unless noted.
The mark [2] stands for this setting: measured here: IkB-luc green channel.
Where [3] appears, read: measured here: control luc red channel.

By AC50 is commonly meant the midpoint of the concentration-response curve, whichever way the signal moves. In the case of `COc1ccc(NC(=O)Cn2c(=O)oc3cc(S(=O)(=O)N4CCCC4)ccc32)cc1OC`, the AC50 under setting [1] is 7.94 µM [falling, partial curve].
As for `Cc1cccc(NC(=O)CN2C(=O)C(c3ccc(F)cc3)=NC23CCCCCC3)c1C`, the concentration at half-maximal activity (AC50) under setting [1] is 20 µM [falling, partial curve].
In the case of `Cc1c(C(=O)NCCC2=CCCCC2)oc2ccc(S(=O)(=O)N3CCOCC3)cc12`, the concentration at half-maximal activity (AC50) under setting [1] was 7.94 µM [falling, partial curve].
In the case of `Cc1ccc(C2C(C#N)=C(N)SC(N)=C2C#N)c(C)c1`, the AC50 under setting [1] was 25.1 µM [falling, single point].
In the case of `Cc1ccc(-n2ncc3c(NC4CCCCC4)ncnc32)cc1C`, the AC50 under setting [1] was 12.6 µM [falling, partial curve].
As for `CCOC(=O)c1cc2c(=O)n3ccccc3nc2n(CCOC)c1=NC(=O)c1c(-c2c(F)cccc2Cl)noc1C`, the AC50 under setting [1] is 0.251 µM [falling, full curve].
Consider `O=C(c1ccccc1)n1nc(-c2ccc(Cl)cc2)nc1NCc1ccco1`, for which the AC50 under setting [1] is 12.6 µM [falling, partial curve].
As to `COC(=O)c1[nH]c2ccc(C)cc2c1NC(=O)CN1CCCC(C)(C)C1`, under setting [1], the AC50 is 25.1 µM [falling, partial curve].
Same read-out and setting: as for `CCCN(C(=O)c1ccc2c(=O)n3c(nc2c1)CCCCC3)c1cccc(Cl)c1`, the figure is 39.8 µM [falling, single point].
Consider `COc1ccc(OCC(=O)N2CCN(C(=O)c3ccc(OC)c(OC)c3)CC2)cc1`, for which the AC50 under setting [1] is 0.251 µM [rising, full curve, poor fit].
Regarding `Cc1cccc(C)c1NC(=O)CCSCCc1ccccn1`, the AC50 under setting [1] was 3.16 µM [rising, single point].
Regarding `COc1ccccc1CN1CCC(CNC(=O)c2cnn(-c3cccc(Cl)c3)c2C2CCN(C(=O)OC(C)(C)C)CC2)CC1`, the half-maximal activity concentration (AC50) under setting [1] is 5.01 µM [falling, partial curve, poor fit].
Turning to `O=C(CCS(=O)(=O)c1cc(Br)cc2c1N(C(=O)C1CC1)CC2)NCc1ccccc1Cl`, the AC50 under setting [1] is 3.16 µM [rising, single point].
`COC(=O)c1sccc1S(=O)(=O)N(CC(=O)Nc1c(C)cccc1C)c1ccc(C)c(C)c1`: under setting [1], the AC50 was 12.6 µM [falling, partial curve].
On the same count and under the same terms, as for `COc1ccc2c(c1)c(=O)c(S(=O)(=O)c1ccc(C)cc1)cn2Cc1ccccc1C`, the figure is 25.1 µM [falling, single point].
Regarding `COC(=O)C(C)n1nnc2sc(-c3ccccc3)cc2c1=O` (stereo not drawn), the AC50 under setting [1] is 15.8 µM [falling, single point].
Consider `CCC(C(=O)Nc1cc(F)ccc1F)n1nc(-c2cc(C)ccc2C)ccc1=O` (stereo not drawn), for which the concentration at half-maximal activity (AC50) under setting [1] is 25.1 µM [falling, single point].
Regarding `Oc1c(Cl)cc(Cl)c(Cl)c1Cc1c(O)c(Cl)cc(Cl)c1Cl`, the AC50 under setting [1] was 0.501 µM [falling, full curve].
With `Cc1c(NC(=O)C(C)(C)Oc2ccc(Cl)cc2)cccc1-c1nc2ncccc2o1`, the AC50 under setting [1] is 15.8 µM [falling, partial curve].
The same measure, in the same setting: as for `CCOC(=O)CC(=O)Nc1nc2ccccc2s1`, the figure is 39.8 µM [falling, single point]; as for `CCCc1c(-c2ccc(O)cc2)nn(-c2ccc(O)cc2)c1-c1ccc(O)cc1`, 31.6 µM [falling, partial curve].
`CCC(C(=O)Nc1ccccc1OC)n1nc(C)c2sc3ccccc3c2c1=O` (stereo not drawn): the half-maximal activity concentration (AC50) under setting [1] is 25.1 µM [falling, single point].
As for `Cc1ccc(C)c(OCC(=O)Nc2ccc(S(=O)(=O)Nc3onc(C)c3C)cc2)c1C`, the half-maximal activity concentration (AC50) under setting [1] is 10 µM [falling, partial curve].
Regarding `CCCC1C(c2ccco2)NC(c2ccco2)CC1(C)O` (stereo not drawn), the AC50 under setting [1] is 10 µM [falling, partial curve].
With `CCN(CCCNC(=O)CSc1cc(=O)n(CC)c2ccccc12)c1cccc(C)c1`, the concentration at half-maximal activity (AC50) under setting [1] is 12.6 µM [falling, partial curve].
Same read-out and setting: as for `CCOc1ccc(CCNC(=O)c2ccc(CS(=O)Cc3cccc(Cl)c3)o2)cc1` (stereo not drawn), the figure is 31.6 µM [falling, single point].
On the same count and under the same terms, the figure for `Cc1ccc2c(=O)c(C(=O)c3ccc(Cl)cc3)cn(CC(=O)NC3CCCCC3)c2n1` is 7.94 µM [falling, partial curve]; for `O=S(=O)(c1ccc(F)cc1)N(Cc1nc(-c2ccc(Cl)cc2)no1)C1CCCCC1` it is 12.6 µM [falling, partial curve, poor fit].
In the case of `O=C(Nc1c(C(=O)O)oc2ccccc12)c1ccc(C(F)(F)F)cc1`, the concentration at half-maximal activity (AC50) runs as follows: under setting [2], 3.98 µM [rising, single point]; under setting [3], 1 µM [rising, partial curve].
In the case of `Cc1cccc(Nc2ncc3c(n2)CC(C)CC3=O)c1` (stereo not drawn), under setting [1], the AC50 was 12.6 µM [falling, partial curve].
With `CCOc1ccc(C(=O)Nc2ccc(S(=O)(=O)Nc3nc(C)cc(C)n3)cc2)cc1OC`, under setting [1], the concentration at half-maximal activity (AC50) is 12.6 µM [falling, partial curve, poor fit].
Still for that read-out and setting: the figure for `COc1ccc(N(CC(=O)Nc2cc(C)ccc2C)S(=O)(=O)c2ccc(OC)c(OC)c2)cc1` is 20 µM [falling, partial curve]; for `O=C(CN1CCN(C(=O)c2ccco2)CC1)Nc1ccccc1-c1ccccc1` it is 10 µM [falling, partial curve]; for `O=C(Nc1ccc(F)cc1F)c1ccc2c(O)c(S(=O)(=O)c3ccc(Cl)cc3)c(=O)[nH]c2c1` it is 25.1 µM [falling, single point].
Regarding `COc1cc(NC(=O)CSc2nc3nc(C)c(Cc4ccc(C)cc4)c(C)n3n2)cc(OC)c1OC`, under setting [1], the half-maximal activity concentration (AC50) was 25.1 µM [falling, partial curve].
The same measure, in the same setting: the figure for `CC(=O)c1cc(-c2ccccc2)n(CCC(=O)Nc2ccc(C)cc2C)c1C` is 12.6 µM [rising, partial curve]; for `Cc1ccc(C2C(C#N)=C(N)SC(N)=C2C#N)cc1` it is 31.6 µM [falling, single point].
Consider `O=C(CN1CCN(c2ccc(F)cc2)CC1)Nc1nnc(-c2ccccc2)s1`, for which the concentration at half-maximal activity (AC50) under setting [1] is 15.8 µM [falling, partial curve].
Take `COC(=O)c1c(NC(=O)Nc2ccc(Cl)cc2)sc(C)c1C`: under setting [1], the AC50 is 3.98 µM [falling, full curve, poor fit].
In the case of `Cc1noc(C)c1COC(=O)c1cccc(S(=O)(=O)N2c3ccccc3CC2C)c1` (stereo not drawn), the AC50 under setting [1] is 12.6 µM [falling, partial curve].
As for `COc1ccc(NC(=O)/C=C\c2ccc(Cl)cc2)cc1`, under setting [1], the concentration at half-maximal activity (AC50) was 5.01 µM [falling, full curve].
On the same count and under the same terms, as for `Cc1ccc2c(c1)N(C(=O)Nc1cccc(C)c1C)CCO2`, the figure is 12.6 µM [falling, partial curve].
With `CS(=O)(=O)N1CCc2cc(C(=O)N3CCN(c4ccccc4)CC3)ccc21`, the concentration at half-maximal activity (AC50) under setting [1] is 39.8 µM [falling, single point].
Turning to `CC1CCC(N2CC(=O)N(C3CCCCC3)C(c3ccc(F)cc3)C2=O)CC1` (stereo not drawn), the AC50 under setting [1] is 39.8 µM [falling, partial curve].
Same read-out and setting: the figure for `CCCc1nnc(NC(=O)c2cc(=O)c3cc(Cl)ccc3o2)s1` is 0.794 µM [rising, full curve, poor fit].
On the same count and under the same terms, the figure for `Cc1ccc(-n2nc(C)c3c2OC(N)=C(C#N)C3c2ccncc2)cc1` (stereo not drawn) is 3.98 µM [falling, partial curve] [measured here: IkB-luc green channel].
The same measure, in the same setting: the figure for `CCC(=O)N1CCc2cc(S(=O)(=O)NC(Cc3ccccc3)C(=O)Nc3cccc(OC)c3)ccc21` (stereo not drawn) is 10 µM [falling, partial curve]; for `CCOC(=O)c1cc(S(=O)(=O)N2CCN(c3ccc(C)cc3C)CC2)[nH]n1` it is 20 µM [falling, partial curve]; for `CCOc1ccccc1Nc1ncnc2c1cnn2-c1ccccc1` it is 12.6 µM [falling, partial curve].
As for `Cc1nc2scc(C)n2c(=O)c1S(=O)(=O)N1CCN(c2cccc(C(F)(F)F)c2)CC1`, under setting [1], the AC50 was 3.16 µM [falling, partial curve, poor fit].
Turning to `CCCOc1ccc(C(=O)Nc2ccc(Cl)c(-c3nc4ncccc4o3)c2)cc1`, the AC50 under setting [1] is 6.31 µM [falling, partial curve].
Consider `Cc1ccc(-c2noc(CCCC(=O)NCc3ccco3)n2)cc1`, for which the concentration at half-maximal activity (AC50) under setting [1] is 25.1 µM [falling, single point].
As for `Cc1c(-c2nsc(NC(=O)c3cccc(Cl)c3)n2)nnn1-c1ccccc1C(F)(F)F`, the AC50 under setting [1] is 15.8 µM [falling, partial curve].
Regarding `CCOc1ccc(CCNC(=O)CCc2c(C)nc3cc(-c4ccccc4OC)nn3c2C)cc1`, under setting [1], the AC50 is 1 µM [falling, partial curve].
Same read-out and setting: as for `CCCCn1c(NCc2cc(Cl)ccc2O)nc2ccccc21`, the figure is 31.6 µM [falling, partial curve, poor fit]; as for `COc1ccc(CNCCC(c2ccccc2)c2ccc3c(c2)OCO3)cc1` (stereo not drawn), 31.6 µM [falling, single point].
Take `CCCC1=Nc2cc(C(=O)NCCc3ccccc3)ccc2Sc2ccc(C)cc21`: the half-maximal activity concentration (AC50) under setting [2] was 5.01 µM [rising, partial curve] and the AC50 under setting [3] was 39.8 µM [falling, single point].
On to `COc1ccccc1NC1=C(C)C(=O)CC1`, for which the half-maximal activity concentration (AC50) under setting [1] was 25.1 µM [rising, partial curve] [measured here: IkB-luc green channel].
Consider `COc1ccccc1-c1c(C)nn2c(N3CCCCCC3)cc(C)nc12`, for which the AC50 under setting [1] was 25.1 µM [falling, partial curve].
With `COc1cccc(-c2nc(SCC(=O)NC3CCCC3)c(-c3ccccc3)[nH]2)c1`, under setting [1], the concentration at half-maximal activity (AC50) was 31.6 µM [falling, partial curve].
Same read-out and setting: as for `CCOc1ccc(NC(=O)/C=C\C(=O)N(c2ccc(C(C)C)cc2)C(C(=O)NCc2ccco2)c2ccc(F)cc2)cc1` (stereo not drawn), the figure is 15.8 µM [falling, partial curve].
